Measured values: PMC12069319, “Transcriptional co-regulator OCA-B/Pou2af1 restricts Th2 differentiation”
Construct, isoform or probe ends are uncertain for at least one entry.

System: GATA3
Test: EMSA
Details: EMSA: 0.6X buffer D (1X: 20 mM HEPES, 100 mM KCl, 1 mM DTT), 50 ng/ul poly-dI/dC, 1 ug/ul BSA, on ice 15 min, 6% native PAGE in 0.5X TBE; recombinant protein; protein details: FLAG (anti-FLAG purified)

TCGAGAAGCGCTGATTAGCATCTGTCATTA (double strand) [RHS5_12-Cy5]
binding result: binds
